Experimental data published in US20240360177A1 (priority 2021, published 2024).

Experiment: general procedure: Fmoc solid-phase peptide synthesis; HBTU/HOBt and DIEA
Conditions: whole synthesis, Analytical HPLC on a 5-micron C18 analytical column, water-acetonitrile buffers containing 0.1% TFA, acetate or chloride form by anion exchange resin

Q: For “H-[dR]R[dR][Aoc][dR]R[dR][Aoc][dR]R[dR]R[Aoc][dR]R[dR]R-NH2 (SMILES N=C(N)NCCC[C@@H](N)C(=O)N[C@@H](CCCNC(=N)N)C(=O)N[C@H](CCCNC(=N)N)C(=O)NCCCCCCCC(=O)N[C@H](CCCNC(=N)N)C(=O)N[C@@H](CCCNC(=N)N)C(=O)N[C@H](CCCNC(=N)N)C(=O)NCCCCCCCC(=O)N[C@H](CCCNC(=N)N)C(=O)N[C@@H](CCCNC(=N)N)C(=O)N[C@H](CCCNC(=N)N)C(=O)N[C@@H](CCCNC(=N)N)C(=O)NCCCCCCCC(=O)N[C@H](CCCNC(=N)N)C(=O)N[C@@H](CCCNC(=N)N)C(=O)N[C@H](CCCNC(=N)N)C(=O)N[C@@H](CCCNC(=N)N)C(N)=O)”, which “final HPLC purity” value is on record?
A: The value was 92.7%.

Q: Which “final HPLC purity” value does the source give for “H-[dR]R[dR][NH(CH2)9CO][dR]R[dR][Aoc][dR]R[dR]R[Aoc][dR]R[dR]R-OH (SMILES N=C(N)NCCC[C@@H](N)C(=O)N[C@@H](CCCNC(=N)N)C(=O)N[C@H](CCCNC(=N)N)C(=O)NCCCCCCCCCC(=O)N[C@H](CCCNC(=N)N)C(=O)N[C@@H](CCCNC(=N)N)C(=O)N[C@H](CCCNC(=N)N)C(=O)NCCCCCCCC(=O)N[C@H](CCCNC(=N)N)C(=O)N[C@@H](CCCNC(=N)N)C(=O)N[C@H](CCCNC(=N)N)C(=O)N[C@@H](CCCNC(=N)N)C(=O)NCCCCCCCC(=O)N[C@H](CCCNC(=N)N)C(=O)N[C@@H](CCCNC(=N)N)C(=O)N[C@H](CCCNC(=N)N)C(=O)N[C@@H](CCCNC(=N)N)C(=O)O)” here?
A: The value was 96.6%.

Q: Which “final HPLC purity” value does the source give for “rRr-(ButylGly)-rRr-(ButylGly)-rRrR-(ButylGly)-rRrR-NH2” here?
A: The value was 94.3%.

Starred links: 1 amine or outer side, 2 acyl side, 3 side chain; linkers in the order of their positions; H or OH if unused. Non-standard residues stand in square brackets, D forms with d. NH(CH2)9CO = O=C(CCCCCCCCCN[*:1])[*:2]; Aoc = NCCCCCCCC(=O)O
